Reference: publication PMC11077861
No constants are given. Whether binding was seen depends on the method and setting. Binding seen in cells or lysates may run through a third protein. Here binding means that the protein was enriched with, or labelled near, the bait; the list need not be complete. Where a sequence is shown, tags or fusion partners need not be part of it.

The chains behind the UniProt entries cited, without tags or fusion partners. Residues count along the entry.
UniProt P06733: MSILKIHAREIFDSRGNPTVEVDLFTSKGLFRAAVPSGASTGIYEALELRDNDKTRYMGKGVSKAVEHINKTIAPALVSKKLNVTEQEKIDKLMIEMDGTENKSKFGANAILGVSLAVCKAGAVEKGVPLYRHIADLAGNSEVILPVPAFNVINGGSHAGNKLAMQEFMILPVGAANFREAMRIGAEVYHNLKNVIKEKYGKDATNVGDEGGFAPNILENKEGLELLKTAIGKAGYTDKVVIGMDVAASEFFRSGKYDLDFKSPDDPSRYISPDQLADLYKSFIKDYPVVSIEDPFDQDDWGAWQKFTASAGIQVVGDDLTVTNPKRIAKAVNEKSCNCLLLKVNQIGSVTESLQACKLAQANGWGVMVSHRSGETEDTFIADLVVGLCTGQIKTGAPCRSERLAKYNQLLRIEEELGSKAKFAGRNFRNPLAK
UniProt P10809, residues 27-573: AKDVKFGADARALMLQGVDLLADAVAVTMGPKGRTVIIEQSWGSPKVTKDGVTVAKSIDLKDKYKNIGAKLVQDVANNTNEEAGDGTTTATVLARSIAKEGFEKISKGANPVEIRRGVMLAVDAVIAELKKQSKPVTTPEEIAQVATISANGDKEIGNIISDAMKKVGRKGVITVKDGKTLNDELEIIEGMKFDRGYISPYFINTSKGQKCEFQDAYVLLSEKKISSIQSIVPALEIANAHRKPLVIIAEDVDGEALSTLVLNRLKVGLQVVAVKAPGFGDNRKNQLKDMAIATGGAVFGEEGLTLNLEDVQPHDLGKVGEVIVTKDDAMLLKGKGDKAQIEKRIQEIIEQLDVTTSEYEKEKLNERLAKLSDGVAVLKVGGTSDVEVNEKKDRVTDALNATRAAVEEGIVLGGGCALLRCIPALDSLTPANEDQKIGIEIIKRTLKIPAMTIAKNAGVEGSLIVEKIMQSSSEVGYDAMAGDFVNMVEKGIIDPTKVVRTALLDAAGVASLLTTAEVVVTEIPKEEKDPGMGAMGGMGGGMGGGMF
UniProt P35579: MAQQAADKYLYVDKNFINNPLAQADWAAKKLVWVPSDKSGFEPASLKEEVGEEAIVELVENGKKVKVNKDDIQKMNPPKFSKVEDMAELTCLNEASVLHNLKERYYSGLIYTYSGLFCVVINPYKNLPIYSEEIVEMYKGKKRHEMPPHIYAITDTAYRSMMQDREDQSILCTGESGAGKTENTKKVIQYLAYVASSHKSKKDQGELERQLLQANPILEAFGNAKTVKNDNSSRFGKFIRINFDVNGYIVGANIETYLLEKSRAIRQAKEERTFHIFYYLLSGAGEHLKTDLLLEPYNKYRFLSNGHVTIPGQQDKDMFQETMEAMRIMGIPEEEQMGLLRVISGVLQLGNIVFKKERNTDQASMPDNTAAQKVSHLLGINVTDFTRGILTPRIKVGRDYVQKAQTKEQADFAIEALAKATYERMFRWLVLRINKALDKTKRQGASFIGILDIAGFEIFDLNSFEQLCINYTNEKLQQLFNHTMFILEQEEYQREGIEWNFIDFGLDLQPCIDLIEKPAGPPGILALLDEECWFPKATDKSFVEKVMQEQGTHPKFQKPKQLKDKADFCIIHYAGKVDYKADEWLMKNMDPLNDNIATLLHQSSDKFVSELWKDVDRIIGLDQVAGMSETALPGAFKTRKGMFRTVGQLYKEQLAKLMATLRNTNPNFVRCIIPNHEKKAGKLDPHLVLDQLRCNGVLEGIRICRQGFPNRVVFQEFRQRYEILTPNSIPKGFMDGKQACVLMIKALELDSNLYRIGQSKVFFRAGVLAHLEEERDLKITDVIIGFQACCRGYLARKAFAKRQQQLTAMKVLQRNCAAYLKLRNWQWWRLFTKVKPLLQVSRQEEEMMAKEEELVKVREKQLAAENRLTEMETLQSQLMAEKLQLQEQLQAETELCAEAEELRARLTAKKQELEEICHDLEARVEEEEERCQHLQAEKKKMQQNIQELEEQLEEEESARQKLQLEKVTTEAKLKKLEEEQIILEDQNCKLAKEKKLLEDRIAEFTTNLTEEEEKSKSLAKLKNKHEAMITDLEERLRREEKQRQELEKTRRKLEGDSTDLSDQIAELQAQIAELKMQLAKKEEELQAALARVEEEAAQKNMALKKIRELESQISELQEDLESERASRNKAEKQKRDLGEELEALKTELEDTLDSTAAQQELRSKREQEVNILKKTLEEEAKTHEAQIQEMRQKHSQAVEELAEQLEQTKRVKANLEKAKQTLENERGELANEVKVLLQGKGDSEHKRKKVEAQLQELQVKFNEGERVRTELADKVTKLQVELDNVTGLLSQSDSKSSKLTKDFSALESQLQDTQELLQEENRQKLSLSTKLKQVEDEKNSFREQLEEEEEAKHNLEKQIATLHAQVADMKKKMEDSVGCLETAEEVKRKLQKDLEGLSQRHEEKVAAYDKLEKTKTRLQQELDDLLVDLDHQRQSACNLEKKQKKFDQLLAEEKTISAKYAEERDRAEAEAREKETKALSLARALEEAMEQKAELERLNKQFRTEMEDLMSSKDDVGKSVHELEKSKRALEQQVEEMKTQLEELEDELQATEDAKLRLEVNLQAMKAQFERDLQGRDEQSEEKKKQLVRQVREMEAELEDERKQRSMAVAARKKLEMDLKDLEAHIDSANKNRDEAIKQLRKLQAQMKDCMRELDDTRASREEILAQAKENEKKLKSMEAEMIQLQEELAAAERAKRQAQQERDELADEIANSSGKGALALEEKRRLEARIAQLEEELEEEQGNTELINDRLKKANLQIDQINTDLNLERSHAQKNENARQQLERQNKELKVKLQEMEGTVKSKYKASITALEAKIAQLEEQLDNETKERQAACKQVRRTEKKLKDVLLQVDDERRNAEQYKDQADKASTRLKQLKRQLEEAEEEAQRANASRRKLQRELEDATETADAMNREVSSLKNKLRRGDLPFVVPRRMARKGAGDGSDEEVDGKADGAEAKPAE
UniProt P14618: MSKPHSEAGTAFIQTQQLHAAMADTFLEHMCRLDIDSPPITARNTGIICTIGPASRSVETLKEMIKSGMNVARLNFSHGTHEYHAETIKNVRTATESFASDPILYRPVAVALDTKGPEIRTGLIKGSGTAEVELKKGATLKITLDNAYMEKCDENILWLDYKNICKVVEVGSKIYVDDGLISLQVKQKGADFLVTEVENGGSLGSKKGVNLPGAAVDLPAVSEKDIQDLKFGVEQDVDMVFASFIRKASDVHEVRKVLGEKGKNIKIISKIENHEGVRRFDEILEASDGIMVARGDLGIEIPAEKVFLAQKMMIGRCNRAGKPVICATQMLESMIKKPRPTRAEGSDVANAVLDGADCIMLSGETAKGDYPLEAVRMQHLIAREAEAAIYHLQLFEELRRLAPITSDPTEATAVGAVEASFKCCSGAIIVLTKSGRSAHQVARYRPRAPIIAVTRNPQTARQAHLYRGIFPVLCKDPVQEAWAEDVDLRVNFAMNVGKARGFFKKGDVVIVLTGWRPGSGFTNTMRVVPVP

T1: ESM1 overexpressed in ovarian cancer cells (Flag-tagged) (human) (UniProt Q9NQ30)
T1 sequence: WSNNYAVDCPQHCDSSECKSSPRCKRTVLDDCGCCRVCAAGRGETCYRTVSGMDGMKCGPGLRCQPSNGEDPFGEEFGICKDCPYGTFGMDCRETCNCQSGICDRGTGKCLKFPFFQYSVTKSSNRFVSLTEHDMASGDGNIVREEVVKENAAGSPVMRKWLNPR

B1: Ubiquitin-like modifier-activating enzyme 2 (UBA2), endogenous (enzyme, UniProt Q9UBT2 1-640)
chain: MALSRGLPRELAEAVAGGRVLVVGAGGIGCELLKNLVLTGFSHIDLIDLDTIDVSNLNRQFLFQKKHVGRSKAQVAKESVLQFYPKANIVAYHDSIMNPDYNVEFFRQFILVMNALDNRAARNHVNRMCLAADVPLIESGTAGYLGQVTTIKKGVTECYECHPKPTQRTFPGCTIRNTPSEPIHCIVWAKYLFNQLFGEEDADQEVSPDRADPEAAWEPTEAEARARASNEDGDIKRISTKEWAKSTGYDPVKLFTKLFKDDIRYLLTMDKLWRKRKPPVPLDWAEVQSQGEETNASDQQNEPQLGLKDQQVLDVKSYARLFSKSIETLRVHLAEKGDGAELIWDKDDPSAMDFVTSAANLRMHIFSMNMKSRFDIKSMAGNIIPAIATTNAVIAGLIVLEGLKILSGKIDQCRTIFLNKQPNPRKKLLVPCALDPPNPNCYVCASKPEVTVRLNVHKVTVLTLQDKIVKEKFAMVAPDVQIEDGKGTILISSEEGETEANNHKKLSEFGIRNGSRLQADDFLQDYTLLINILHSEDLGKDVEFEVVGDAPEKVGPKQAEDAAKSITNGSDDGAQPSTSTAQEQDDVLIVDSDEEDSSNNADVSEEERSRKRKLDEKENLSAKRSRIEQKEELDDVIALD

Molecular target: T1, ESM1 overexpressed in ovarian cancer cells (Flag-tagged) (human)
Assay: affinity purification with mass spectrometry; ESM1-interacting complexes isolated from CAOV3 and OV90 cells with anti-Flag monoclonal antibodies and paramagnetic beads; SDS-PAGE, LC-MS/MS (QExactive)

binding, binds:
ENO1 (from UniProt P06733 1-434) (enzyme)
HSPD1 (from UniProt P10809 27-573)
MYH9 (from UniProt P35579 1-1960)
PLEC (from UniProt Q15149 1-4684)
Pyruvate kinase isozyme M2 (PKM2), endogenous (from UniProt P14618 1-531) (enzyme)

Molecular target: T1, ESM1 overexpressed in ovarian cancer cells (Flag-tagged) (human)
Assay: as above
Remark: another data set of the same source

binding, binds:
B1
